Record: PubChem BioAssay AID652243 (Drosophila RNAi Screening Center, 2013)
The deposit covers about 24,000 reagents; this is an unselected part of those that have a named target and a result. In the full data, 246 (1%) were called active. 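Plates not normalised; calls are printed but the firefly/Renilla ratio behind them is not deposited; fold cut for lowering reported inconsistently.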 Raw values vary from plate to plate and are shown uncorrected. A plus sign joins genes that one reagent is predicted to hit. Not given: the amount of reagent.

Aim: 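Fly regulators of androgen-dependent reporter output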 (primary screen)
Cells: Drosophila S2R+ cells
Reagent: long dsRNA against Drosophila genes
Duration: 72 h (48 h, then 24 h hormone)
Treatment: synthetic androgen R1881 at 10 nM for 24 h
Measured: 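Firefly light from an androgen-responsive reporter and Renilla control light per well, raw and unnormalised, for each of two replicates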
Scale: firefly reporter light: higher = more light from androgen-responsive reporter; Renilla control light: higher = more constitutive control signal (cell number, transfection)
Rule for the call: 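Hit when the log firefly-to-Renilla ratio dropped or increased by a fixed fold versus the mean of GFP or LacZ controls across duplicate plates; lowering cut given as 1.5 and as 3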
Meaning of the calls: active = hit: reporter lowered or raised; inactive = no hit

firefly reporter light, replicate 1	firefly reporter light, replicate 2	Renilla control light, replicate 1	Renilla control light, replicate 2	outcome	target gene	DRSC id
62456	34505	6.02e5	3.73e5	inactive	bys (by S6)	DRSC18748
4.24e5	2.78e5	1.14e6	6.55e5	inactive	bys (by S6)	DRSC29013
1.12e6	1.10e6	2.37e6	1.81e6	inactive	slim (scruin like at the midline)	DRSC06921
9.78e5	9.58e5	3.78e6	1.95e6	inactive	CG11723	DRSC00324
7.78e5	9.05e5	8.50e5	8.09e5	inactive	CG11723	DRSC24890
3.08e5	3.47e5	2.96e6	3.39e6	inactive	Glyp (Glycogen phosphorylase)	DRSC00752
6.66e5	5.25e5	8.63e5	7.25e5	inactive	CG13563	DRSC22153
1.39e6	1.47e6	1.74e6	1.71e6	inactive	Klp31E (Kinesin-like protein at 31E)	DRSC03354
82013	85760	1.56e6	1.53e6	inactive	Cyp313a2 (Cytochrome P450 313a2)	DRSC16625
1.17e5	72978	1.09e6	8.72e5	inactive	Cpr62Ba (Cuticular protein 62Ba)	DRSC08403
1.52e5	1.47e5	1.29e6	1.26e6	inactive	CG42369	DRSC03244
1.55e5	1.61e5	2.23e6	2.36e6	inactive	CG12288	DRSC02155
8.76e5	7.28e5	2.27e6	2.23e6	inactive	CG42502 + CG10570	DRSC02071
5.59e5	6.89e5	1.01e6	1.02e6	inactive	DnaJ-1 (DnaJ-like-1)	DRSC11145
1.32e5	1.27e5	1.28e6	9.86e5	inactive	RpL27 (Ribosomal protein L27)	DRSC15638
2.29e5	2.67e5	5.82e5	5.32e5	inactive	RpL27 (Ribosomal protein L27)	DRSC25890
5.16e5	9.31e5	9.90e5	1.07e6	inactive	sala + CG43355	DRSC01188
3.24e5	4.26e5	2.54e6	2.95e6	inactive	sala + CG43355	DRSC03605
2.25e5	2.28e5	1.25e6	1.17e6	inactive	kmg (kumgang)	DRSC02829
1.46e5	1.41e5	6.82e5	7.68e5	inactive	CG12506	DRSC00347
3.53e5	4.55e5	4.23e6	4.07e6	inactive	tHMG2 (testis-enriched HMG-box-containing protein 2)	DRSC16182
2.76e5	2.83e5	3.27e6	3.13e6	inactive	Fadd (Fas-associated death domain)	DRSC14122
6.20e5	1.28e6	1.69e6	2.24e6	inactive	CG33331 + CG33332	DRSC22928
7.41e5	9.08e5	9.09e5	9.09e5	inactive	CG33331 + CG33332	DRSC29492
4.72e5	8.14e5	1.49e6	1.49e6	inactive	SelT (Selenoprotein T)	DRSC02732
3.23e5	2.25e5	8.92e5	7.02e5	inactive	SelT (Selenoprotein T)	DRSC26033
86069	85165	1.49e6	1.67e6	inactive	Arl8 (ADP ribosylation factor-like 8)	DRSC16334
7.56e5	7.14e5	2.29e6	2.10e6	inactive	18SrRNA-Psi:CR41602 (18S ribosomal RNA pseudogene:CR41602)	DRSC37848
6.00e5	4.51e5	9.44e5	1.09e6	inactive	Rrp4	DRSC04434
6.73e5	9.30e5	1.26e6	1.26e6	inactive	Rrp4	DRSC29543

3 of these entries, reformatted:
{"target gene":"Glyp (Glycogen phosphorylase)","DRSC id":"DRSC00752","firefly reporter light, replicate 1":3.08e5,"firefly reporter light, replicate 2":3.47e5,"Renilla control light, replicate 1":2.96e6,"Renilla control light, replicate 2":3.39e6,"outcome":"inactive"}
{"target gene":"CG13563","DRSC id":"DRSC22153","firefly reporter light, replicate 1":6.66e5,"firefly reporter light, replicate 2":5.25e5,"Renilla control light, replicate 1":8.63e5,"Renilla control light, replicate 2":7.25e5,"outcome":"inactive"}
{"target gene":"Klp31E (Kinesin-like protein at 31E)","DRSC id":"DRSC03354","firefly reporter light, replicate 1":1.39e6,"firefly reporter light, replicate 2":1.47e6,"Renilla control light, replicate 1":1.74e6,"Renilla control light, replicate 2":1.71e6,"outcome":"inactive"}

Additional reagents follow.
firefly reporter light, replicate 1	firefly reporter light, replicate 2	Renilla control light, replicate 1	Renilla control light, replicate 2	outcome	target gene	DRSC id
4.38e5	5.14e5	2.49e6	3.65e6	inactive	Blos3	DRSC09573
1.82e5	1.81e5	1.72e6	2.21e6	inactive	CG13707	DRSC08316
7.30e5	1.14e6	1.04e6	1.16e6	inactive	Rpn6 (Regulatory particle non-ATPase 6)	DRSC07541
1.77e5	2.22e5	2.72e6	3.36e6	inactive	CG14736	DRSC14956
1.24e6	1.43e6	1.03e6	1.01e6	inactive	CG14736	DRSC23985
2.27e5	1.27e5	1.82e6	1.04e6	inactive	DCX-EMAP	DRSC10012
1.02e5	1.10e5	5.19e5	4.00e5	inactive	DCX-EMAP	DRSC10013
1.71e6	1.26e6	1.20e6	1.10e6	inactive	DCX-EMAP	DRSC23492
4.60e5	3.79e5	2.17e6	2.48e6	inactive	Sply (Sphingosine-1-phosphate lyase)	DRSC07299
3.05e5	2.85e5	4.95e5	6.00e5	inactive	Sply (Sphingosine-1-phosphate lyase)	DRSC27378
85569	98409	9.58e5	1.24e6	inactive	CG11192	DRSC06057
3.42e5	5.66e5	8.99e5	9.63e5	inactive	CG11192	DRSC25902
5.40e5	4.75e5	2.63e6	2.20e6	inactive	CG30091	DRSC21809
3.01e5	3.10e5	5.92e5	7.39e5	inactive	CG30091	DRSC27799
2.39e5	2.23e5	2.33e6	1.91e6	inactive	SmD1 (Small ribonucleoprotein particle protein SmD1)	DRSC09800
1.16e6	1.76e6	1.13e6	1.71e6	inactive	SmD1 (Small ribonucleoprotein particle protein SmD1)	DRSC28571
1.92e5	2.40e5	1.85e6	2.68e6	inactive	CG13616	DRSC14619
3.36e5	3.21e5	3.98e6	4.40e6	inactive	Remo (Remoulade)	DRSC19710
92142	64633	9.13e5	5.75e5	inactive	Vps52 (Vacuolar protein sorting 52)	DRSC03050
66288	60922	6.55e5	5.22e5	inactive	CG6654	DRSC16084
1.07e6	6.79e5	1.88e6	1.73e6	inactive	CG34200	DRSC38889
7.53e5	6.91e5	2.32e6	1.75e6	inactive	CG31697	DRSC22273
2.64e5	3.77e5	2.87e6	3.35e6	inactive	Ac13E (Adenylyl cyclase 13E)	DRSC19325
2.46e5	3.22e5	5.17e5	5.58e5	inactive	Ac13E (Adenylyl cyclase 13E)	DRSC27333
7.23e5	7.29e5	1.66e6	1.81e6	inactive	CG5114	DRSC10482
2.50e5	1.99e5	2.11e6	2.65e6	inactive	Rsod (Related to Sod)	DRSC15424
1.18e5	1.49e5	1.63e6	1.69e6	inactive	TotF (Turandot F)	DRSC02305
1.08e6	1.09e6	1.33e6	1.48e6	inactive	CG8248	DRSC07124
